Experimental data as given in patent US20200131266A1 (STCUBE, published 2020).
These are yes or no findings as the source states them, for the method shown. Some results given as binding are weak or reduced against the parent protein; the word gives no strength. Tags and fused reporters may be left off the sequences shown.

How the values were obtained:
[1] = target: T1, human IgG1-Fc-tagged mouse BTN1A1-ECD (dimer) (mouse; human) (UniProt Q62556); experiment: SPR (Biacore)
T1 sequence: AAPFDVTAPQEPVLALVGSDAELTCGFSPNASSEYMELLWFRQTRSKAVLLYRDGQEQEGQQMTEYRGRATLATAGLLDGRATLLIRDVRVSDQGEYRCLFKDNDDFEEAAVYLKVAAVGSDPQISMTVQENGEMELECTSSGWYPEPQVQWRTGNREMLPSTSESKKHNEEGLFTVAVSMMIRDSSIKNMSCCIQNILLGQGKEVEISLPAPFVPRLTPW

[2] = target: T1, human IgG1-Fc-tagged mouse BTN1A1-ECD (dimer) (mouse; human); experiment: SPR (Biacore), STC1011 captured on the chip, mouse BTN1A1-ECD-Fc injected at 2-64 nM, control flow cell subtracted
[3] = target: T1, human IgG1-Fc-tagged mouse BTN1A1-ECD (dimer) (mouse; human); experiment: SPR (BIAcore), antibody immobilized on a Protein A-CM5 chip
[4] = target: T1, human IgG1-Fc-tagged mouse BTN1A1-ECD (dimer) (mouse; human); experiment: SPR (Biacore), STC1029 captured on the chip, mouse BTN1A1-ECD-Fc injected at 2-64 nM, control flow cell subtracted

Measured: binding

B1: STC1011 (antibody, V domains shown)
VH: EVQLQQSGPELVKPGDSVKMSCKASGYTFTDYYMDWVKQSHGKSLEWIGYISPNNGGTKYNQKFKGKATLTVDKSSSTAYMELHSLTSEDSAVYYCAREPDLLYYFDYWGQGTTLTVSS
VL: DIVMSQSPSSLAVSVGEKVIMSCKSSQSLLYFSNQKNYLAWYQQKPGQSPRLLIYWASTRESGVPDRFTGSGSGTDFTLTISSVKAEDLAVYYCQQYYSYPWTFGGGTKLEIK
binds: [1] | [2] | [3]

B2: STC1029 (antibody, V domains shown)
VH: EVQLQQSGPELVKPGASVKISCKASGYSFTGYFMNWVKQSHGKSLEWIGRINPYNGDTFYNQKFKDKATLTVDTSSSTAHMELRSLTSEESAVYYCARWTTVINFDYWGQGTTLTVSS
VL: SIVMTQTPKFLLVSAGDRVTITCKASQSVSYDVVWYQQKPGQSPKLLMYYVSNRYTGVPDRFTGSGYGTDFTFTISTVQAEDLAVYFCQQDYSSPPTFGGGTKLEIK
binds: [1] | [4] | [3]
